Measurements: paper PMC10746174
Results are given in words; binding and its absence hold for the method and conditions named. Binding seen in cells or lysates may run through a third protein. Binding can be weak; no strength is given.

Chains of the proteins cited; added tags and fusions are not shown. Lines headed by an entry give the natural chain unless they say otherwise; changes in a name come on top.
UniProt P33927: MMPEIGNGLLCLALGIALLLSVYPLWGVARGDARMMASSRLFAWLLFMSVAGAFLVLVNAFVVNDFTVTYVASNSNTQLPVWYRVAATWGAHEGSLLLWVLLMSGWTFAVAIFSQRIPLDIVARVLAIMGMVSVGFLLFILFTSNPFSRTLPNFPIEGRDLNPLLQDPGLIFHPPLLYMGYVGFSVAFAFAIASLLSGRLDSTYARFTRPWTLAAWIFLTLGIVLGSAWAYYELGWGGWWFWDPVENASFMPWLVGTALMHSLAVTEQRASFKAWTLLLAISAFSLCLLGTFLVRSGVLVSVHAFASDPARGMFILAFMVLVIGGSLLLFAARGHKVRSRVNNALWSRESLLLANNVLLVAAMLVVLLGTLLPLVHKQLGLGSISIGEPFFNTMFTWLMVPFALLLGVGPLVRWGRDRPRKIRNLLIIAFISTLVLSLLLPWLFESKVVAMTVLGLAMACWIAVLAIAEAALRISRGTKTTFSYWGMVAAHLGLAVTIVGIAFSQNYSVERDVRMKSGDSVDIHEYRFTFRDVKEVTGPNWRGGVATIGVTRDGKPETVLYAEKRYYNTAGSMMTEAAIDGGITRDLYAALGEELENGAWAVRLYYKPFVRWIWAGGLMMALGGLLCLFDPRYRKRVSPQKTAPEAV

Columns and labels:
Assay in all cases: pull-down; CcmF:6×His (C-terminal tag) co-expressed with the complete System I pathway in E. coli Δccm (RK103) and affinity purified; 5 µg of purified protein separated by SDS-PAGE; immunoblots with α-CcmH and α-CcmE, heme stain for holoCcmE
[1] = molecular target: CcmF:6×His S249A (E. coli) (UniProt P33927)
[2] = molecular target: CcmF:6×His E233A (E. coli) (UniProt P33927)
[3] = molecular target: CcmF:6×His L234A (E. coli) (UniProt P33927)
[4] = molecular target: CcmF:6×His P244C (E. coli) (UniProt P33927)
[5] = molecular target: CcmF:6×His wild type (E. coli) (UniProt P33927)
[6] = molecular target: CcmF:6×His W240C (E. coli) (UniProt P33927)
[7] = molecular target: CcmF:6×His E246C (E. coli) (UniProt P33927)
[8] = molecular target: CcmF:6×His W240A (E. coli) (UniProt P33927)
[9] = molecular target: CcmF:6×His G237C (E. coli) (UniProt P33927)
[10] = molecular target: CcmF:6×His G238A (E. coli) (UniProt P33927)
[11] = molecular target: CcmF:6×His F241A (E. coli) (UniProt P33927)
[12] = molecular target: CcmF:6×His V245C (E. coli) (UniProt P33927)
[13] = molecular target: CcmF:6×His D243A (E. coli) (UniProt P33927)
[14] = molecular target: CcmF:6×His G237A (E. coli) (UniProt P33927)
[15] = molecular target: CcmF:6×His Y232C (E. coli) (UniProt P33927)
[16] = molecular target: CcmF:6×His S249C (E. coli) (UniProt P33927)
[17] = molecular target: CcmF:6×His A228C (E. coli) (UniProt P33927)
[18] = molecular target: CcmF:6×His V245A (E. coli) (UniProt P33927)

binding [1]: binds
binding [2]: binds
binding [3]: binds
binding [4]: binds
binding [5]: binds
binding [6]: binds
binding [7]: binds
binding [8]: binds
binding [9]: binds
binding [10]: binds
binding [11]: binds
binding [12]: binds
binding [13]: binds
binding [14]: binds
binding [15]: binds
binding [16]: binds
binding [17]: binds
binding [18]: binds
B1: CcmH (protein, UniProt P0ABM9 19-350)
chain: TIDVLQFKDEAQEQQFRQLTEELRCPKCQNNSIADSNSMIATDLRQKVYELMQEGKSKKEIVDYMVARYGNFVTYDPPLTPLTVLLWVLPVVAIGIGGWVIYARSRRRVRVVPEAFPEQSVPEGKRAGYVVYLPGIVVALIVAGVSYYQTGNYQQVKIWQQATAQAPALLDRALDPKADPLNEEEMSRLALGMRTQLQKNPGDIEGWIMLGRVGMALGNASIATDAYATAYRLDPKNSDAALGYAEALTRSSDPNDNRLGGELLRQLVRTDHSNIRVLSMYAFNAFEQQRFGEAVAAWEMMLKLLPANDTRRAVIERSIAQAMQHLSPQESK
